Measured values taken from patent publication US20090181025A1.
No constants are given. Whether binding was seen depends on the method and setting. In cells and extracts the contact can be indirect. Some binding calls cover weakened binding; strength is not graded here.

Amino acid sequences for entries named in this document (tags omitted). A change or cut given only in a name is not applied to a line headed by its entry. Residues count along the entry.
UniProt P20491, residues 19-86: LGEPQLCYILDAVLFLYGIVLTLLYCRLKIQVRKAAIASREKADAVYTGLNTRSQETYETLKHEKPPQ
UniProt B6A8R8: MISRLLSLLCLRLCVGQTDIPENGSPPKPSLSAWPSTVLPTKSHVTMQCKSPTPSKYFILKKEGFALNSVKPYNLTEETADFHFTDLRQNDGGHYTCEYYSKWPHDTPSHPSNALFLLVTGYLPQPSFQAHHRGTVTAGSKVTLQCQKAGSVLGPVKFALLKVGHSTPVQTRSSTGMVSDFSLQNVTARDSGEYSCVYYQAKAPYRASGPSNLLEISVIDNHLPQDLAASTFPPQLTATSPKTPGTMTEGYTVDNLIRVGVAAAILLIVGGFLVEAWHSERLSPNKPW

Biological target: Flag tagged FcRγ chain expressed in B300.19 transfectants (UniProt P20491)
Assay: co-immunoprecipitation from B300.19 transfectants (1% digitonin lysate): anti-Flag IP, immunoblot with anti-mTARM #6

binding: binds
Substance: mouse TARM protein, isoform m1, expressed on B300.19 cells (from UniProt B6A8R8 17-288) (receptor)
